# Results are given in words; binding and its absence hold for the method and conditions named. Some entries that bind do so weakly or less than the wild type.
# The chains behind the UniProt entries cited, without tags or fusion partners. Where a name states a change or a piece, a line headed by the entry shows the natural chain unless it says otherwise. A line that says so, or that is headed by a name, gives the form on record, which may keep a tag or linker.
# cynomolgus CD40 on B cells (G7PG38, form named): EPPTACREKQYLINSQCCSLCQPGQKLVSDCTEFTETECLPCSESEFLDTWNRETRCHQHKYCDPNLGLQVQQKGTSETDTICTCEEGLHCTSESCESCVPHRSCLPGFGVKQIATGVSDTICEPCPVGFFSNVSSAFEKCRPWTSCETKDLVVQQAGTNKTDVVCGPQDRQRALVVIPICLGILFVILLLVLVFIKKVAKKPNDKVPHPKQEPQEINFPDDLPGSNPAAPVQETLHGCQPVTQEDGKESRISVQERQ
# rhesus CD40 on B cells (F6SNI1, form named): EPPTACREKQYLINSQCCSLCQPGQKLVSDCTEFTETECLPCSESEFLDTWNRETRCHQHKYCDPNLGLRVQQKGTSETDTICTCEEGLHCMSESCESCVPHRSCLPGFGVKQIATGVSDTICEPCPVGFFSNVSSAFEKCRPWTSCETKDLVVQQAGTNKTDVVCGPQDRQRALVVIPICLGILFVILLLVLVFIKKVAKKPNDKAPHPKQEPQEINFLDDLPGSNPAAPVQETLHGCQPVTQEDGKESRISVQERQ
# Legend:
# [1] = target: cynomolgus CD40 on B cells (cynomolgus) (UniProt G7PG38); test: FACS, whole blood B cells
# [2] = target: rhesus CD40 on B cells (rhesus) (UniProt F6SNI1); test: FACS, whole blood B cells
binding [1],binding [2],Binder
binds,binds,"monoclonal antibody 10.8.3 (antibody, human IgG2, kappa, V domains shown) VH: QVQLQESGPGLVKPSETLSLTCTVSGGSISSYYWIWIRQPAGKGLEWIGRVYTSGSTNYNPSLKSRVTMSVDTSKNQFSLKLSSVTAADTAVYYCARDGLYRGYGMDVWGQGTTVTVSS VL: DIQMTQSPSSVSASVGDRVTITCRASQPISSWLAWYQQKPGKAPKLLIYSASGLQSGVPSRFSGSGSGTDFTLTISSLQPEDFATYYCQQTDSFPLTFGGGTKVEIKR"
binds,binds,"monoclonal antibody 3.1.1 (antibody, human IgG2, kappa, V domains shown) VH: QVQLVESGGGVVQPGRSLRLSCAASGFTFSSYGMHWVRQAPGKGLEWVAVISKDGGNKYHADSVKGRFTISRDNSKNALYLQMNSLRVEDTAVYYCVRRGHQLVLGYYYYNGLDVWGQGTTVTVSS VL: DIVLTQSPLSLPVTPGEPASISCRSSQSLLYSNGYNFLDWYLQKPGQSPQLLIYLGSNRASGVPDRFSGSGSGTDFTLKISRLEAEDVGVYYCMQALQTPRTFGQGTKVEIKR"

# Source: patent US20070190051A1
